The nature of this data set: in vitro. The conditions noted are these: human, Caco-2.

Molecules are shown by their SMILES.

One may read the Papp A→B as the apparent permeability from the apical to the basolateral side of a cell layer. A higher Papp A→B goes with fast passage. In turn, `CC(C)NCC(O)COc1cccc2ccccc12` (stereo not shown) [Propranolol] had a Papp A→B at 6 hr, 50 ug/ml of approximately 13.2 ×10⁻⁶ cm/s.

(Values after patent US20070135383A1, “Phospholipase inhibitors, including multi-valent phospholipase inhibitors, and use thereof, including as lumen-localized phospholipase inhibitors” (priority 2005, published 2007).)
